{"source": "PubChem BioAssay AID1259405 – NCATS | 2018", "purpose": "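Mouse-designed siRNAs used to find CHO productivity engineering targets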 (primary screen)", "system": "Chinese hamster CHO-K1 ovary cells with stable secreted eGFP expression", "reagents": "single siRNA against mouse genes, 0.8 pmol siRNA per well (2 µl of 400 nM stock)", "timing": "3 days", "detection": "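Per-well intracellular GFP measured by laser scanning cytometry, plus viability from ATP luminescence, each relative to plate median of non-targeting control wells, in %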", "direction": "GFP, % of control: higher = more GFP per well, higher productivity; viability (ATP), % of control: higher = more viable cells (more ATP)", "hit rule": "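a knock-down is called active if GFP reaches 120% or more of non-targeting control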", "note": "Here is an unselected part of about 50,000 deposited reagents. About 4,000 of them (8%) were called active. 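Mouse siRNA library applied to hamster cells; one well for each siRNA.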 A number with no mark means an inactive call. The numbers tell different reagents against one gene apart. No sequences are given here."}
{"gene": "Agrn", "reagent": 1, "GFP, % of control": "125 (active)", "viability (ATP), % of control": 95.5}
{"gene": "Agrn", "reagent": 2, "GFP, % of control": 77.5, "viability (ATP), % of control": 45.1}
{"gene": "Agrn", "reagent": 3, "GFP, % of control": 114, "viability (ATP), % of control": 140}
{"gene": "G930045G22Rik", "reagent": 1, "GFP, % of control": 71.3, "viability (ATP), % of control": 54.7}
{"gene": "G930045G22Rik", "reagent": 2, "GFP, % of control": 28.2, "viability (ATP), % of control": 12}
{"gene": "G930045G22Rik", "reagent": 3, "GFP, % of control": 54.8, "viability (ATP), % of control": 56}
{"gene": "Ngf", "reagent": 1, "GFP, % of control": 33.8, "viability (ATP), % of control": 56.2}
{"gene": "Ngf", "reagent": 2, "GFP, % of control": 108, "viability (ATP), % of control": 80.8}
{"gene": "Ngf", "reagent": 3, "GFP, % of control": 90.1, "viability (ATP), % of control": 123}
{"gene": "Neurl3", "reagent": 1, "GFP, % of control": 53.9, "viability (ATP), % of control": 56.2}
{"gene": "Neurl3", "reagent": 2, "GFP, % of control": 55.8, "viability (ATP), % of control": 42}
{"gene": "Neurl3", "reagent": 3, "GFP, % of control": 7.13, "viability (ATP), % of control": 9.72}
{"gene": "9530009G21Rik", "reagent": 1, "GFP, % of control": 59.4, "viability (ATP), % of control": 80.9}
{"gene": "9530009G21Rik", "reagent": 2, "GFP, % of control": 70.4, "viability (ATP), % of control": 77.8}
{"gene": "9530009G21Rik", "reagent": 3, "GFP, % of control": 70.1, "viability (ATP), % of control": 75.9}
{"gene": "Marveld2", "reagent": 1, "GFP, % of control": 103, "viability (ATP), % of control": 83.2}
{"gene": "Marveld2", "reagent": 2, "GFP, % of control": 67.8, "viability (ATP), % of control": 82}
{"gene": "Marveld2", "reagent": 3, "GFP, % of control": 53.2, "viability (ATP), % of control": 31.9}
{"gene": "Cdv3", "reagent": 1, "GFP, % of control": 78.5, "viability (ATP), % of control": 86.7}
{"gene": "Cdv3", "reagent": 2, "GFP, % of control": 68.1, "viability (ATP), % of control": 61.6}
{"gene": "Cdv3", "reagent": 3, "GFP, % of control": 88.1, "viability (ATP), % of control": 102}
{"gene": "Cldn12", "reagent": 1, "GFP, % of control": 78.8, "viability (ATP), % of control": 40.3}
{"gene": "Cldn12", "reagent": 2, "GFP, % of control": 79.6, "viability (ATP), % of control": 98.4}
{"gene": "Cldn12", "reagent": 3, "GFP, % of control": 77.5, "viability (ATP), % of control": 95}
{"gene": "Pex5l", "reagent": 1, "GFP, % of control": 73.1, "viability (ATP), % of control": 62.7}
{"gene": "Pex5l", "reagent": 2, "GFP, % of control": 75.9, "viability (ATP), % of control": 67.3}
{"gene": "Pex5l", "reagent": 3, "GFP, % of control": 41.1, "viability (ATP), % of control": 65.3}
{"gene": "Parp1", "reagent": 1, "GFP, % of control": 65.3, "viability (ATP), % of control": 62.2}
{"gene": "Parp1", "reagent": 2, "GFP, % of control": "128 (active)", "viability (ATP), % of control": 123}
{"gene": "Parp1", "reagent": 3, "GFP, % of control": 72.8, "viability (ATP), % of control": 83.8}
{"gene": "Pds5b", "reagent": 1, "GFP, % of control": 62.6, "viability (ATP), % of control": 54.1}
{"gene": "Pds5b", "reagent": 2, "GFP, % of control": 65.7, "viability (ATP), % of control": 75.9}
{"gene": "Pds5b", "reagent": 3, "GFP, % of control": 23.6, "viability (ATP), % of control": 13.9}
{"gene": "Tbc1d22a", "reagent": 1, "GFP, % of control": 98.4, "viability (ATP), % of control": 106}
{"gene": "Tbc1d22a", "reagent": 2, "GFP, % of control": 72.7, "viability (ATP), % of control": 82.6}
{"gene": "Tbc1d22a", "reagent": 3, "GFP, % of control": 70.7, "viability (ATP), % of control": 53.4}
{"gene": "Foxp3", "reagent": 1, "GFP, % of control": 61.6, "viability (ATP), % of control": 77.5}
{"gene": "Foxp3", "reagent": 2, "GFP, % of control": 47.5, "viability (ATP), % of control": 48.7}
{"gene": "Rbm11", "reagent": 1, "GFP, % of control": 99.1, "viability (ATP), % of control": 102}
{"gene": "Rbm11", "reagent": 2, "GFP, % of control": 108, "viability (ATP), % of control": 81.5}
{"gene": "Oit3", "reagent": 1, "GFP, % of control": 76.5, "viability (ATP), % of control": 79.6}
{"gene": "Oit3", "reagent": 2, "GFP, % of control": 90.9, "viability (ATP), % of control": 95}
{"gene": "Oit3", "reagent": 3, "GFP, % of control": 61.1, "viability (ATP), % of control": 80.6}
{"gene": "Vps4b", "reagent": 1, "GFP, % of control": 35.3, "viability (ATP), % of control": 53.8}
{"gene": "Vps4b", "reagent": 2, "GFP, % of control": 102, "viability (ATP), % of control": 64.9}
{"gene": "Vps4b", "reagent": 3, "GFP, % of control": 83.9, "viability (ATP), % of control": 81.8}
{"gene": "6030445D17Rik", "reagent": 1, "GFP, % of control": 56.2, "viability (ATP), % of control": 67.2}
{"gene": "6030445D17Rik", "reagent": 2, "GFP, % of control": 94.2, "viability (ATP), % of control": 102}
{"gene": "6030445D17Rik", "reagent": 3, "GFP, % of control": "120 (active)", "viability (ATP), % of control": 124}
{"gene": "Ptpn6", "reagent": 1, "GFP, % of control": 110, "viability (ATP), % of control": 79.3}
{"gene": "Ptpn6", "reagent": 2, "GFP, % of control": 83, "viability (ATP), % of control": 65.4}
{"gene": "Ptpn6", "reagent": 3, "GFP, % of control": 66.3, "viability (ATP), % of control": 66.6}

Reformatted: 6 of the entries above
{"gene":"Pds5b","reagent":2,"GFP, % of control":65.7,"viability (ATP), % of control":75.9}
{"gene":"Pds5b","reagent":3,"GFP, % of control":23.6,"viability (ATP), % of control":13.9}
{"gene":"Tbc1d22a","reagent":1,"GFP, % of control":98.4,"viability (ATP), % of control":106}
{"gene":"Tbc1d22a","reagent":2,"GFP, % of control":72.7,"viability (ATP), % of control":82.6}
{"gene":"Tbc1d22a","reagent":3,"GFP, % of control":70.7,"viability (ATP), % of control":53.4}
{"gene":"Foxp3","reagent":1,"GFP, % of control":61.6,"viability (ATP), % of control":77.5}
